± gives the uncertainty stated by the source. Many of these values have a large error.
Assay: self-splicing fitness, log relative to wild type (ln ratio); higher = more splicing; Tetrahymena group I intron in knt gene, E. coli kanamycin selection, DiMSum; sequences stand for … in CUCUCU…GGAGGGAAAAGUUAUCAGGCAUGCACCUGGUAGCUAGUCUUUAAACCAAUAGAUUGCAUCGGUUUAAAAGGCAAGACCGUCAAAUUGCGGGAAAGGGGUCAACAGCCGUUCAGUACCAAGUCUCAGGGGAAACUUUGAGAUGGCCUUGCAAAGGGUAUGGUAAUAAGCUGACGGACAUGGUCCUAACCACGCAGCCAAGUCCUAAGUCAACAGAUCUUCUGUUGAUAUGGAUGCAGUUCACAGACUAAAUGUCGGUCGGGGAAGAUGUAUUCUUCUCAUAAGAUAUAGUCGGACCUCUCCUUAAUGGGAGCUAGCGGAUGAAGUGAUGCAACACUGGAGCCGCUGGGAACUAAUUUGUAUGCGAAAGUAUAUUGAUUAGUUUUGGAGUACUCGUGGUCG
Method in brief: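 The eight P1ex-region nucleotides of an intron in the knt kanamycin-resistance gene on pET-22b(+) were all randomised and the library put into E. coli BL21(DE3). Six replicate transformations were grown overnight at 37°C or 30°C on LB agar with or without 25 μg/mL kanamycin, together with 100 μg/mL carbenicillin, 50 μM IPTG and 0.2% rhamnose. Colonies were pooled and amplicon-sequenced on an Illumina HiSeq 2500. Fitness from DiMSum is the error-weighted combination of wild-type-normalised replicate fold changes, kanamycin over none.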

Sequence | self-splicing fitness (ln) (30 °C) | self-splicing fitness (ln) (37 °C)
GGCGAGCAAUAUUACGGAGC | -2.39 ± 0.64 | –
AUUUAGCAAUAUUACGCAAC | – | -2.52 ± 0.75
UAUUAGCAAUAUUACGAAGC | -1.93 ± 1.2 | -0.778 ± 1.4
CGGAAGCAAUAUUACGAGUC | -2.83 ± 0.22 | -2.39 ± 0.31
CGGGAGCAAUAUUACGUUGC | – | -0.44 ± 1.4
CGAGAGCAAUAUUACGGAAC | – | -1.79 ± 1.2
UUGUAGCAAUAUUACGGCUA | -2.72 ± 0.58 | –
CAAAAGCAAUAUUACGGUUC | -3.56 ± 0.22 | -1.83 ± 0.18
CUCGAGCAAUAUUACGCACU | – | -2.72 ± 0.53
UGGUAGCAAUAUUACGCCGC | -1.99 ± 0.64 | -2.39 ± 0.77
GUGUAGCAAUAUUACGUCGC | -2.48 ± 0.26 | -2.59 ± 0.54
UACCAGCAAUAUUACGGAAG | -3.5 ± 0.24 | -1.57 ± 0.16
CACGAGCAAUAUUACGCUGC | -3.63 ± 1 | -3.21 ± 0.74
AUCCAGCAAUAUUACGCACG | -1.68 ± 0.12 | -0.334 ± 0.13
GAAGAGCAAUAUUACGCUAC | – | -4.09 ± 1
CCGUAGCAAUAUUACGACGG | -4.22 ± 0.72 | –
GUGGAGCAAUAUUACGUGAC | -2.79 ± 0.64 | –
UAGGAGCAAUAUUACGACCU | -0.167 ± 1.2 | -1.36 ± 0.84
CUUGAGCAAUAUUACGAGAA | – | -1.37 ± 0.62
GUAUAGCAAUAUUACGAUUG | -3.48 ± 0.42 | -1.67 ± 0.3
AAAGAGCAAUAUUACGGCGC | -2.27 ± 0.2 | -0.545 ± 0.21
GGCAAGCAAUAUUACGUCCC | -3.54 ± 1 | –
AUGCAGCAAUAUUACGCCUU | -0.919 ± 0.072 | -0.304 ± 0.095
AUUGAGCAAUAUUACGGCGU | -0.734 ± 0.11 | 0.573 ± 0.17

Record cards (already shown). Values in the order: self-splicing fitness (ln) (30 °C)	self-splicing fitness (ln) (37 °C)
UAUUAGCAAUAUUACGAAGC reads -1.93 ± 1.2	-0.778 ± 1.4
UGGUAGCAAUAUUACGCCGC reads -1.99 ± 0.64	-2.39 ± 0.77

(next part)

Sequence | self-splicing fitness (ln) (30 °C) | self-splicing fitness (ln) (37 °C)
CCCAAGCAAUAUUACGUCAG | -4.12 ± 0.17 | -1.97 ± 0.13
UCGGAGCAAUAUUACGUCUU | -3.48 ± 1.1 | –
UAACAGCAAUAUUACGGCCC | – | -1.67 ± 0.67
GCGUAGCAAUAUUACGCUGA | -4.25 ± 0.62 | –
UGUUAGCAAUAUUACGCCAU | -3.21 ± 0.51 | -1.86 ± 0.66
CGUGAGCAAUAUUACGCCAU | – | -2.48 ± 1.1
ACACAGCAAUAUUACGCGGC | -2.29 ± 0.12 | -2.92 ± 0.16
CUUCAGCAAUAUUACGCCUA | -2.73 ± 0.56 | –
CGUGAGCAAUAUUACGAAAU | -4.18 ± 0.6 | -3.62 ± 0.6
GUCGAGCAAUAUUACGCCCU | -2.06 ± 0.66 | –
UCGAAGCAAUAUUACGGAGC | -3.27 ± 0.74 | –
ACGGAGCAAUAUUACGCCGG | – | -1.97 ± 0.5
AAUGAGCAAUAUUACGCAUC | -3.92 ± 0.53 | -3.22 ± 0.6
GUGGAGCAAUAUUACGGCAA | -3.14 ± 0.76 | –
AUCAAGCAAUAUUACGGGUC | -3.33 ± 0.29 | -2.19 ± 0.27
AAAAAGCAAUAUUACGGGAG | -2.11 ± 0.11 | -1.04 ± 0.12
CGCUAGCAAUAUUACGAUUC | -3.29 ± 0.36 | -2.12 ± 0.21
CGUGAGCAAUAUUACGAUAC | – | -0.778 ± 1.4
GGAGAGCAAUAUUACGUACA | -4.04 ± 0.6 | –
AGGCAGCAAUAUUACGGUGC | -3.54 ± 0.16 | -2.89 ± 0.2
CACGAGCAAUAUUACGUACC | – | -2.35 ± 0.57
GAAGAGCAAUAUUACGCUCC | – | -1.92 ± 0.66
CUUUAGCAAUAUUACGAGUC | -3.76 ± 0.6 | –
CUGAAGCAAUAUUACGCCGA | – | -3.03 ± 0.54

Sequence | self-splicing fitness (ln) (30 °C) | self-splicing fitness (ln) (37 °C)
CGAUAGCAAUAUUACGCUGC | -3.15 ± 0.36 | -2.21 ± 0.5
UUUAAGCAAUAUUACGCUUC | – | -3.12 ± 0.52
GUCUAGCAAUAUUACGCGAG | -1.08 ± 0.13 | 0.182 ± 0.13
CCGUAGCAAUAUUACGAGUA | -3.48 ± 0.52 | –
UGGGAGCAAUAUUACGCACG | – | 0.212 ± 0.56
GCAUAGCAAUAUUACGCGGA | -3.65 ± 0.61 | –
GUGCAGCAAUAUUACGCAUU | -3.59 ± 0.52 | –
CGAUAGCAAUAUUACGUAUC | – | -2.31 ± 1.1
CGCCAGCAAUAUUACGAAUA | – | -2.69 ± 0.54
CACGAGCAAUAUUACGUAUA | -3.69 ± 0.76 | –
UCCUAGCAAUAUUACGCUAG | – | -3.15 ± 0.62
GACGAGCAAUAUUACGGGAG | -5.31 ± 0.72 | -2.4 ± 0.54
UCCUAGCAAUAUUACGAAGC | -3.82 ± 1 | -2.22 ± 0.55
UAUCAGCAAUAUUACGCCAC | – | -2.55 ± 0.62
UAUUAGCAAUAUUACGUCAC | -1.98 ± 0.53 | -1.59 ± 0.81
AUUAAGCAAUAUUACGAAAG | -1.89 ± 0.15 | -1.23 ± 0.16
GGGGAGCAAUAUUACGUCAG | – | -1.06 ± 0.59
CAAGAGCAAUAUUACGAGAA | -1.27 ± 0.63 | -0.663 ± 0.68
AGAGAGCAAUAUUACGCCUG | – | -2.08 ± 1.1
CUUUAGCAAUAUUACGAUCA | – | -2.16 ± 0.5
CUUCAGCAAUAUUACGCACA | – | -2.99 ± 0.53
CGGGAGCAAUAUUACGGGAA | -4.01 ± 0.73 | –
AUCGAGCAAUAUUACGAGCC | -2.7 ± 0.76 | -0.735 ± 0.87
UCGAAGCAAUAUUACGCAAA | -4.05 ± 1 | –

Sequence | self-splicing fitness (ln) (30 °C) | self-splicing fitness (ln) (37 °C)
UGAUAGCAAUAUUACGCAGC | -0.572 ± 1.2 | -0.373 ± 0.92
AAGAAGCAAUAUUACGCAGU | -2.66 ± 0.18 | -2.08 ± 0.15
UUGGAGCAAUAUUACGCUAC | -4.22 ± 0.73 | -3.64 ± 0.59
UAGGAGCAAUAUUACGUCGG | – | -0.705 ± 0.65
CAGAAGCAAUAUUACGGAGA | -6.2 ± 1 | –
AGCGAGCAAUAUUACGGGCU | -3.44 ± 0.6 | –
UGGAAGCAAUAUUACGGUAU | – | -2.8 ± 0.75
UAAGAGCAAUAUUACGCGCC | -4.26 ± 1 | –
UGCGAGCAAUAUUACGAUGG | -3.43 ± 0.2 | -1.93 ± 0.17
AUUAAGCAAUAUUACGAAGA | -1.73 ± 0.67 | -0.906 ± 0.68
UCUUAGCAAUAUUACGACCC | -0.0715 ± 0.8 | -3.44 ± 1
CGGGAGCAAUAUUACGAGAA | -2.61 ± 0.63 | -2.82 ± 0.53
CUCGAGCAAUAUUACGGCCU | -4.63 ± 0.6 | –
GUGGAGCAAUAUUACGGACA | – | -1.58 ± 0.58
CCGUAGCAAUAUUACGAAAA | -1.66 ± 0.52 | –
CGAGAGCAAUAUUACGCUAU | -3.12 ± 0.51 | -0.693 ± 0.58
GACUAGCAAUAUUACGCCAG | – | -2.17 ± 0.65
GUUGAGCAAUAUUACGUGUA | -3 ± 0.21 | -3.87 ± 0.72
CCCCAGCAAUAUUACGACAA | -5.09 ± 0.72 | –
UGGGAGCAAUAUUACGCUGA | -1.87 ± 0.57 | -0.92 ± 0.61
CUGUAGCAAUAUUACGACCC | – | -2.11 ± 0.5
CCUGAGCAAUAUUACGAUUC | – | -3.74 ± 0.73
GAUAAGCAAUAUUACGCAGA | -2.42 ± 1.2 | –
UGUGAGCAAUAUUACGUUUC | -2.09 ± 1.4 | -2.67 ± 1.1

Sequence | self-splicing fitness (ln) (30 °C) | self-splicing fitness (ln) (37 °C)
AGCGAGCAAUAUUACGUCGC | -2.94 ± 1.1 | -2.9 ± 0.74
CUGGAGCAAUAUUACGCUAG | -5.51 ± 0.58 | –
UCGUAGCAAUAUUACGACUC | -3.2 ± 0.54 | –
GAGUAGCAAUAUUACGACCC | – | -0.998 ± 0.59
AGCGAGCAAUAUUACGAUCC | -2.4 ± 0.69 | –
UCAGAGCAAUAUUACGUACA | -4.71 ± 1 | -1.61 ± 0.6
CGCUAGCAAUAUUACGAGAU | -3.86 ± 0.19 | -3.36 ± 0.23
CGGUAGCAAUAUUACGCAAC | -4.33 ± 1 | –
UAUGAGCAAUAUUACGGGCA | -3.16 ± 0.56 | -3.35 ± 0.52
CCUCAGCAAUAUUACGUCCC | -3.4 ± 1.1 | -1.76 ± 0.68
UCGUAGCAAUAUUACGUUCC | -4.04 ± 1.1 | -1.6 ± 0.84
AGGCAGCAAUAUUACGCUAA | -1.05 ± 0.097 | -0.682 ± 0.11
UGGGAGCAAUAUUACGCUCA | -2.89 ± 0.61 | –
CCGAAGCAAUAUUACGUAUA | -1.61 ± 0.76 | –
GAGGAGCAAUAUUACGAGUC | -1.93 ± 0.82 | -1.47 ± 1.2
UUCGAGCAAUAUUACGCGAA | -3.19 ± 1.2 | -2.62 ± 0.76
UCUCAGCAAUAUUACGGCCG | -3.6 ± 0.53 | –
UUUCAGCAAUAUUACGGAAC | – | -2.67 ± 1.1
UUAUAGCAAUAUUACGACCC | -2.09 ± 1.4 | –
CCUGAGCAAUAUUACGAGCC | -2.65 ± 1.1 | –
GUUAAGCAAUAUUACGAGUA | -2.5 ± 0.12 | -1.32 ± 0.095
UGCGAGCAAUAUUACGACGC | – | -3.34 ± 1

Quoted at random: two records from the list
Sequence | self-splicing fitness (ln) (30 °C) | self-splicing fitness (ln) (37 °C)
CGGUAGCAAUAUUACGCAAC | -4.33 ± 1 | –
CCGAAGCAAUAUUACGUAUA | -1.61 ± 0.76 | –

Source: the supplement of paper PMC7877785
